The test system of data set [1] is GC cell lines (AGP-01, ACP-02, ACP-03). As to the kind of experiment: Growth inhibition assay, all GC cell lines. It is filed as cell-based. The note with it: human. How it is done: All cell lines were cultured in Dulbecco’s Modified Eagle Medium, high Glucose (4.5 g/L), with Sodium Pyruvate and L-glutamin] (DMEM, Lonza, UK), containing 10% foetal bovine serum (FBS) (Invitrogen, USA), 1% antibiotic with 100 IU/ml Penicillin and 100 ug/ml Streptomycin (Invitrogen, USA). The culture medium was changed 2 to 3 times a week and cells were passaged using trypsin/EDTA (Invitrogen, USA).
. Resarzurin was used for growth inhibition assays. Briefly, cells (300/well) were plated in 384-well flat-bottomed plates and cultured for 24 h. […] All the following in vitro experiments were performed on metastatic AGP-01 cells. For further validation of the biomarkers found in in vitro studies, expression analysis were performed on patient tumor samples from all GC histological types.

Data set [2] concerns AGP-01 cells. The note with it: human.
The test system of a further data set is ACP-03 cells. Description: Growth inhibition assay (resazurin). It is filed as cell-based. Conditions: Homo sapiens, 2D culture, 72 h, value (± SD). For orientation: Resazurin is reduced to fluorescent resorufin, in cell work by metabolically active cells.
A further data set relates to ACP-02 cells. As to the kind of experiment: Growth inhibition assay (resazurin). It is filed as cell-based. The note with it: Homo sapiens, 2D culture, 72 h, value (± SD).
Data set [3] deals with AGP-01 cells. Description: Growth inhibition assay (resazurin). The note with it: 2D culture, 72 h, value (± SD).

In general, IC50 refers to the concentration at which inhibition is half-maximal.

Like-named read-outs stand apart in the source and are kept apart here.

As to `CN[C@@H]1C[C@H]2O[C@@](C)([C@@H]1OC)n1c3ccccc3c3c4c(c5c6ccccc6n2c5c31)C(=O)NC4` [Staurosporin], the figures for the IC50 (in data set [1]; with AGP-01 cells [2]; in the data set with ACP-03 cells) were under 15 nM, 0.00613 nM and 10 nM, respectively.

Consider `CNC(=O)c1ccccc1Sc1ccc2c(/C=C/c3ccccn3)n[nH]c2c1` [Axitinib], for which the IC50 with ACP-02 cells, in the data set with ACP-03 cells and in the data set on AGP-01 cells [3] was over 20000 nM throughout.

The values above are taken from paper PMC7007292 (Oncotarget, 2020).
